In PubChem BioAssay AID182 (DTP/NCI, 2004):
The list does not hold the whole screen: it gathers some chemical classes. Not every dose and run of a compound is shown. T/C is the treated group as % of the vehicle group. For survival time, this PubChem deposit counts one and a half times the control or more as active, and values a quarter to a half above the control carry no call in these data; other NCI protocols may use other cut-offs. Schedule codes are those of the source, taken here to give the interval after Q, in days (D) or hours (H), and the number of doses after X. Some T/C values are marked as having no survivor count here; that says nothing about deaths at the dose. Some doses were run more than once; the values are given in rising order.

Test system: BDF1 mice, P388/ADR leukemia ip, median survival T/C
Assay: NCI In Vivo Anticancer Drug Screen. Data for tumor model P388 Leukemia resistant to Adriamycin; NSC 123127, Developed at Scr 06 and 41 (intraperitoneal) in B6D2F1 (BDF1) mice
Conditions: T/C endpoint: median survival time, higher T/C = longer survival
Method: The antitumor activity of compounds was measured in mice bearing transplantable tumors. Survival or tumor size were measured and the results are expressed as the measurement made in the treated group (T) divided by the measurement made in the vehicle treated control group (C). The tumor model used in this assay is P388 Leukemia resistant to Adriamycin; NSC 123127, Developed at Scr 06 and 41 (intraperitoneal) in B6D2F1 (BDF1) mice

[1] = dose: 2.88 mg/kg/injection, schedule: Q04DX003 (ip), vehicle: saline + alcohol
[2] = dose: 4.32 mg/kg/injection, schedule: Q04DX003 (ip), vehicle: saline + alcohol
[3] = dose: 4.8 mg/kg/injection, schedule: Q04DX003 (ip), vehicle: saline + alcohol
[4] = dose: 7.2 mg/kg/injection, schedule: Q04DX003 (ip), vehicle: saline + alcohol
[5] = dose: 8.0 mg/kg/injection, schedule: Q04DX003 (ip), vehicle: saline + alcohol
[6] = dose: 12.0 mg/kg/injection, schedule: Q04DX003 (ip), vehicle: saline + alcohol

CC1=C[C@H]2O[C@@H]3C[C@H]4OC(=O)/C=C\C=C\C(C(C)O)OCC[C@@H](C)[C@H](O)C(=O)OC[C@@]2(CC1)[C@]4(C)[C@]31CO1 (stereo partly drawn) was tested, and the T/C (dose: 0.32 mg/kg/injection, schedule: Q04DX003 (ip), vehicle: saline + alcohol) was 109 % of control [survivor count not shown], the T/C (dose: 0.54 mg/kg/injection, schedule: Q04DX003 (ip), vehicle: saline + alcohol) was 118 % of control [survivor count not shown] and the T/C (dose: 130.0 micrograms/kg/injection, schedule: Q04DX003 (ip), vehicle: saline + alcohol) was 99 % of control [survivor count not shown]. For the same molecule, the T/C (dose: 216.0 micrograms/kg/injection, schedule: Q04DX003 (ip), vehicle: saline + alcohol) was 97 % of control [survivor count not shown], the T/C (dose: 360.0 micrograms/kg/injection, schedule: Q04DX003 (ip), vehicle: saline + alcohol) was 104 % of control [survivor count not shown] and the T/C (dose: 600.0 micrograms/kg/injection, schedule: Q04DX003 (ip), vehicle: saline + alcohol) was 90 % of control [survivor count not shown].
With CC1=C[C@H]2O[C@@H]3C[C@H]4OC(=O)/C=C\C=C\C(C(C)O)OCC(O)C(C)CC(=O)OC[C@@]2(C[C@@H]1O)[C@]4(C)[C@@]31CO1 (stereo partly drawn) the T/C (dose: 540.0 micrograms/kg/injection, schedule: Q04DX003 (ip), vehicle: other) was 126 % of control [survivor count not shown], the T/C (dose: 900.0 micrograms/kg/injection, schedule: Q04DX003 (ip), vehicle: other) was 153 % of control [survivor count not shown] and the T/C (dose: 1500.0 micrograms/kg/injection, schedule: Q04DX003 (ip), vehicle: other) was 162 % of control [survivor count not shown].
With CC(=O)OCC12CCC(C)=CC1OC1C(O)C(OC(C)=O)C2(C)C12CO2 (stereo not drawn) the T/C (dose: 1.3 mg/kg/injection, schedule: Q04DX003 (sc), vehicle: saline + alcohol) was 110 % of control [survivor count not shown], the T/C (dose: 1.8 mg/kg/injection, schedule: Q01DX009 (ip), vehicle: saline + alcohol) was 150 % of control [survivor count not shown] and the T/C (dose: 2.16 mg/kg/injection, schedule: Q04DX003 (sc), vehicle: saline + alcohol) was 128 % of control [survivor count not shown]. For the same molecule, the T/C [1] was 128 [survivor count not shown] and 129 % of control [survivor count not shown], the T/C (dose: 3.0 mg/kg/injection, schedule: Q01DX009 (ip), vehicle: saline + alcohol) was 122 % of control [survivor count not shown] and the T/C (dose: 3.24 mg/kg/injection, schedule: Q04DX003 (ip), vehicle: other) was 144 % of control [survivor count not shown]. The T/C [2] was 103 [survivor count not shown] and 120 % of control [survivor count not shown], the T/C [3] was 124 [survivor count not shown] and 129 % of control [survivor count not shown] and the T/C (dose: 5.0 mg/kg/injection, schedule: Q01DX009 (ip), vehicle: saline + alcohol) was 108 % of control [survivor count not shown]. For the same molecule, the T/C [4] was 130 % of control [survivor count not shown], the T/C [5] was 130 [survivor count not shown] and 137 % of control [survivor count not shown] and the T/C [6] was 98 % of control [survivor count not shown]. The T/C (dose: 13.33 mg/kg/injection, schedule: Q04DX003 (ip), vehicle: saline + alcohol) was 99 [survivor count not shown] and 124 % of control [survivor count not shown].
With CC(=O)O[C@@H]1[C@@H](O)[C@H]2O[C@@H]3C=C(C)C(=O)[C@@H](O)[C@]3(CO)[C@]1(C)[C@]21CO1 the T/C (dose: 1.73 mg/kg/injection, schedule: Q04DX003 (ip), vehicle: saline + alcohol) was 100 % of control [survivor count not shown], the T/C [1] was 103 % of control [survivor count not shown] and the T/C [3] was 118 % of control [survivor count not shown]. The T/C [5] was 120 % of control [survivor count not shown].
With C[C@@H](O)[C@H]1/C=C/C=C\C(=O)O[C@@H]2C[C@H]3O[C@@H]4[C@@H]5OC5(C)CCC4(COC(=O)[C@H]4O[C@]4(C)[C@@H](O)CO1)[C@]2(C)[C@]31CO1 (stereo partly drawn) the T/C (dose: 1.94 mg/kg/injection, schedule: Q04DX003 (sc), vehicle: other) was 99 % of control [survivor count not shown], the T/C (dose: 2.59 mg/kg/injection, schedule: Q04DX003 (ip), vehicle: saline + alcohol) was 144 % of control [survivor count not shown] and the T/C (dose: 3.24 mg/kg/injection, schedule: Q04DX003 (sc), vehicle: other) was 116 % of control [survivor count not shown]. For the same molecule, the T/C [2] was 149 % of control [survivor count not shown], the T/C (dose: 5.4 mg/kg/injection, schedule: Q04DX003 (sc), vehicle: other) was 111 % of control [survivor count not shown] and the T/C [4] was 158 % of control [survivor count not shown]. The T/C [6] was 146 % of control [survivor count not shown].
With CC(=O)OC[C@]12C[C@H](OC(=O)CC(C)C)C(C)=C[C@H]1OC1[C@H](O)[C@@H](OC(C)=O)[C@@]2(C)[C@@]12CO2 the T/C (dose: 1.08 mg/kg/injection, schedule: Q04DX003 (ip), vehicle: saline + alcohol) was 122 [survivor count not shown] and 127 % of control [survivor count not shown], the T/C (dose: 1.8 mg/kg/injection, schedule: Q04DX003 (ip), vehicle: saline + alcohol) was 99 [survivor count not shown] and 124 % of control [survivor count not shown] and the T/C (dose: 2.16 mg/kg/injection, schedule: Q04DX003 (ip), vehicle: saline + alcohol) was 111 % of control [survivor count not shown]. For the same molecule, the T/C (dose: 3.0 mg/kg/injection, schedule: Q04DX003 (ip), vehicle: saline + alcohol) was 99 [survivor count not shown] and 131 % of control [survivor count not shown], the T/C (dose: 3.6 mg/kg/injection, schedule: Q04DX003 (ip), vehicle: saline + alcohol) was 86 % of control [survivor count not shown] and the T/C (dose: 5.0 mg/kg/injection, schedule: Q04DX003 (ip), vehicle: saline + alcohol) was 90 % of control [survivor count not shown]. The T/C (dose: 540.0 micrograms/kg/injection, schedule: Q01DX009 (ip), vehicle: saline + alcohol) was 132 % of control [survivor count not shown], the T/C (dose: 648.0 micrograms/kg/injection, schedule: Q04DX003 (sc), vehicle: saline + alcohol) was 109 % of control [survivor count not shown] and the T/C (dose: 900.0 micrograms/kg/injection, schedule: Q01DX009 (ip), vehicle: saline + alcohol) was 88 % of control [survivor count not shown]. For the same molecule, the T/C (dose: 1080.0 micrograms/kg/injection, schedule: Q04DX003 (sc), vehicle: saline + alcohol) was 109 % of control [survivor count not shown].
